Reference: the supplement of paper PMC3334620
Whole data set: some 33,000 sequences, median “E-score (-0.5 to 0.5)” near -0.0034, cut for the highest 2% near 0.25. The list shows a part of the results.

biological target: T1, Yap3 (UniProt P38749); assay: PBM E-score (8-mer binding enrichment) (E-score (-0.5 to 0.5)); higher = stronger / more preferred TF binding; conditions: protein concentration: 100 nM; construct: GST-full length
T1 sequence: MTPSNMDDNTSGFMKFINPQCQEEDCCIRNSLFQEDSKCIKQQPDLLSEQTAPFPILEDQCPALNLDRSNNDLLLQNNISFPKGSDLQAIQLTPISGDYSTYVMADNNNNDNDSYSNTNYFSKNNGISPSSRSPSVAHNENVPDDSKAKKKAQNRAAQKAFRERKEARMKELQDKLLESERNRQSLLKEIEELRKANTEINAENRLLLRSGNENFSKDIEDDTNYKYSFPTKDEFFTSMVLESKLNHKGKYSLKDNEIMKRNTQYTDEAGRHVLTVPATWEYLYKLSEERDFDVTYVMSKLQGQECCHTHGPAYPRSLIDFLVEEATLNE
In short: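 PURExpress in vitro transcription/translation supplied GST-tagged yeast transcription factors, either full-length or DNA-binding domain. Applied at about 100-200 nM to universal all-10-mer Agilent arrays double-stranded by primer extension, the bound protein was detected with fluorescent anti-GST. E-scores, modified Wilcoxon-Mann-Whitney statistics, were given by the Universal PBM Analysis Suite to ungapped eight-base words pooled with their reverse complements after masliner normalisation.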

Sequence | PBM E-score
GCAGCGCC | -0.127
CTGGGTGA | -0.117
GCAACGCA | -0.299
ATCGTAAA | 0.0157
GGCGTGTA | -0.062
CACCTTTC | 0.00551
TCACCCGA | -0.0121
AAGAGCGG | 0.0316
AGAGCAAT | -0.0752
CGGTACTC | -0.129
ATGGTCCC | -0.109
GACATTGC | -0.0542
ATATTTAA | 0.339
CGGGCCAA | -0.174
CACTAAGA | -0.0286
ATAGCTCA | 0.0139
AACATAGT | 0.111
ATCCTGTC | -0.0189
GCATAAAC | 0.14
CTAAGTAC | 0.016
AAGAGGAC | -0.0595
CACATCAC | 0.00734
TCAGACGA | 0.0132
AGCTGATA | 0.203
AAAAAGAC | 0.153

Sequence | PBM E-score
ACGCTTAA | 0.00482
ACACCAGC | -0.0881
GCGCAAGC | -0.192
ACTCGGTC | -0.0681
TAGACTCA | -0.093
AGGGGACC | -0.315
CGCTTTGA | 0.0787
ATAATAAA | 0.277
TACCATCA | -0.0163
GGGTAAGA | -0.0599
AACTCGCG | 0.16
ACTAGTCC | 0.0839
CTAATACC | -0.00244
ATTAGTTG | 0.192
GCCTACTA | 0.0106
CGATTACA | 0.0949
ATGCCAAA | 0.0184
ATCCTGAA | 0.101
AGACATCG | -0.0691
AAGGTGGA | -0.11
AATGGCGC | -0.0261
CGGTAAAC | -0.0335
ACTGCTAT | 0.0347
CACAGCAA | 0.103
ACCGGTAT | -0.0131

Sequence | PBM E-score
CGACGTAA | 0.19
GTCCCCGA | -0.15
CGACTCAA | 0.143
ACGCGCGA | 0.033
AGTTATAT | 0.213
AACTCATA | 0.0078
CCGAGAGA | 0.0746
CGGACAGC | -0.00453
ACTCTAGG | -0.204
GAACTATA | 0.244
GTACGAAA | 0.173
ACTCACCT | 0.0229
CGGGACAG | -0.0087
AGCGCCAA | -0.09
GTTGCTCA | 0.00846
GAGTTTCC | -0.0875
ACAGAGTC | -0.00646
GTTACCAA | 0.221
AAAGAGCA | 0.132
CTGCCCGA | 0.00809
AAAAACCT | 0.141
CGGTGACC | -0.188
AGCAACCA | 0.199
AAATCGGC | 0.0436
AGTATTAG | 0.327

Sequence | PBM E-score
CCATCACA | -0.0823
CACGGATG | -0.164
AACTGATG | 0.116
ATTGCCTG | 0.0751
GAACATTA | 0.138
AGGGCCTG | -0.23
CAAGGGGA | -0.0404
TCAAATCA | 0.105
CGAGTCTA | -0.241
AAAGGGTA | 0.0592
AAGCGCCC | -0.242
AGGAAGGC | -0.202
GCTATAAC | -0.0777
GTGTTTCA | -0.0433
CTCGGCGA | 0.129
AAAGGAAA | 0.131
ATGTAACA | 0.256
GGGCCACC | -0.256
CTTCAGAA | -0.028
CCCCACCC | 0.1
CCCTACGC | -0.221
GCCTGAAC | -0.28
ATCAGCCC | 0.0268
CCATATTC | 0.103
CAATGTCC | -0.0423

Sequence | PBM E-score
ACCTTCGG | -0.0953
GTGCCAGA | -0.269
CAGTATGC | -0.0936
AGTGTAAA | 0.0399
TATCTCGA | 0.0776
CGCTTGGA | 0.00137
GCCTCACC | -0.163
GGCTCGAC | -0.0402
AGAGGCCT | -0.118
AAGGTTGC | -0.0131
ATCGATGG | 0.0551
CGGTATAC | -0.0811
GGTATGCA | -0.104
AGTTTTGA | 0.05
AAATCTAA | 0.0988
GGGCCCAA | -0.191
CACGTGTC | -0.0684
CGGGGGGC | -0.396
GGGATTGA | -0.173
GCAGCAAA | -0.0366
ACTCTAAT | 0.116
GATCCTCC | -0.122
ACTCCAAC | -0.0571
AATGGCCT | 0.00783
GGATGGAA | -0.0998

Sequence | PBM E-score
CGGACGCC | -0.0755
ACATCCGG | 0.0295
GCTTGGGA | -0.0903
ACAGCGTC | 0.083
AGGAGCCT | -0.293
CACTGGAG | -0.201
ATCAGCAG | 0.0685
GGTCCGTA | -0.184
CAGGAATA | 0.0125
ACACTCCC | -0.0492
CATTTTCA | 0.196
ATCATAAA | 0.193
GGAATAAA | 0.0795
CGGACCTA | 0.033
GGGTCCAA | -0.13
TAAGTACA | 0.18
ATTTAATC | 0.212
CCAAGTTA | 0.151
TTCCGAAA | -0.0107
ACGATTTG | 0.0541
CTATTAGC | 0.129
ACCTTCCG | 0.0468
AAATGCCC | -0.181
AACTGGGT | -0.0982
GGTAAAGA | 0.12

Sequence | PBM E-score
CTGTACCC | -0.331
ATTAAATG | 0.266
AATGAGTA | 0.33
GCGGTGCA | -0.284
ATAGCCAA | 0.178
AATTTTAA | 0.212
GGTTCGCA | -0.127
CTGGCTTA | -0.176
CGTCTGAA | -0.104
AAAGGCAC | -0.114
CGCGTCGA | 0.0342
ACAGCACG | -0.0482
ACCGAGCG | -0.0624
CTAAAACC | 0.0765
CGGCCTAG | -0.214
ACTACTCA | 0.108
ACGTACGT | 0.024
ATACAACG | 0.187
ATCATTTC | 0.203
AACACCAA | 0.126
AGTACAAG | 0.0503
CAAGCCAA | 0.0602
